Some of the results follow. Many values rest on one well or one pass, so single values are uncertain.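 The apoptosis fraction was the count of cleaved-PARP antibody-stained nuclei relative to all DNA-stained nuclei, imaged in 1,536-well plates. Screening doses were set so most cells survived, and baseline and induced cleaved-PARP levels vary greatly across cell lines.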
Key:
Test in all cases: cleaved PARP positive nuclei fraction relative to DMSO control; melanoma cells; higher = more apoptosis
Details in all cases: library dose: low library concentration; 72 h
[1] = tested on: 501Mel
[2] = tested on: A101D
[3] = tested on: A2058
[4] = tested on: A375
[5] = tested on: C32
[6] = tested on: CBRC008 (line from a melanoma biopsy)
[7] = tested on: CBRC014 (line from a melanoma biopsy)
[8] = tested on: CBRC016 (line from a melanoma biopsy)
[9] = tested on: CBRC017 (line from a melanoma biopsy)
[10] = tested on: CBRC034 (line from a melanoma biopsy)
[11] = tested on: COLO792
[12] = tested on: COLO800
[13] = tested on: COLO829
[14] = tested on: G361
[15] = tested on: IPC-298
[16] = tested on: IST-MEL1
[17] = tested on: LB2518-MEL
[18] = tested on: LOXIMVI
[19] = tested on: MEL-HO

SMILES | cleaved PARP positive nuclei fraction [1] | cleaved PARP positive nuclei fraction [2] | cleaved PARP positive nuclei fraction [3] | cleaved PARP positive nuclei fraction [4] | cleaved PARP positive nuclei fraction [5] | cleaved PARP positive nuclei fraction [6] | cleaved PARP positive nuclei fraction [7] | cleaved PARP positive nuclei fraction [8] | cleaved PARP positive nuclei fraction [9] | cleaved PARP positive nuclei fraction [10] | cleaved PARP positive nuclei fraction [11] | cleaved PARP positive nuclei fraction [12] | cleaved PARP positive nuclei fraction [13] | cleaved PARP positive nuclei fraction [14] | cleaved PARP positive nuclei fraction [15] | cleaved PARP positive nuclei fraction [16] | cleaved PARP positive nuclei fraction [17] | cleaved PARP positive nuclei fraction [18] | cleaved PARP positive nuclei fraction [19]
Cn1sc(=O)n(Cc2ccccc2)c1=O + CO[C@H]1C[C@@H]2CC[C@@H](C)[C@@](O)(O2)C(=O)C(=O)N2CCCC[C@H]2C(=O)O[C@H]([C@H](C)C[C@@H]2CC[C@@H](OCCO)[C@H](OC)C2)CC(=O)[C@H](C)/C=C(\C)[C@@H](O)[C@@H](OC)C(=O)[C@H](C)C[C@H](C)/C=C/C=C/C=C/1C [everolimus] (first compound 0.4 µM, partner dose 0.02 µM) | 175% | 55.2% | 92.9% | 364% | 167% | 38.9% | 105% | 4590% | 142% | 76.9% | 92.2% | 135% | 75.5% | 173% | 123% | 175% | 133% | 126% | 128%
CC(=O)O[C@@]12CO[C@@H]1C[C@H](O)[C@@]1(C)C(=O)[C@H](O)C3=C(C)[C@@H](OC(=O)[C@H](O)[C@@H](NC(=O)OC(C)(C)C)c4ccccc4)C[C@@](O)([C@@H](OC(=O)c4ccccc4)[C@H]21)C3(C)C [Docetaxel] + Nc1ccn([C@@H]2O[C@H](CO)[C@@H](O)C2(F)F)c(=O)n1 [gemcitabine] (first compound 0.0001 µM, partner dose 0.0004 µM) | 794% | 115% | 1940% | 2220% | 124% | 477% | 185% | 190% | 206% | 70.3% | 579% | 146% | 269% | 569% | 293% | 132% | 329% | 97.6% | 131%
Cn1cnc2c(F)c(Nc3ccc(Br)cc3Cl)c(C(=O)NOCCO)cc21 [selumetinib] + Clc1ccc(Nc2nnc(Cc3ccncc3)c3ccccc23)cc1 [vatalanib] (first compound 0.015 µM, partner dose 2 µM) | 756% | 56.5% | 120% | 189% | 155% | 273% | 127% | 46.1% | 131% | 329% | 78% | 90% | 79.2% | 119% | 124% | 173% | 164% | 61.5% | 141%
Cn1sc(=O)n(Cc2ccccc2)c1=O + C[C@]1(O)C[C@@H](c2nc(-c3ccc4ccc(-c5ccccc5)nc4c3)c3c(N)nccn32)C1 [OSI906] (first compound 0.4 µM, partner dose 0.4 µM) | 332% | 113% | 109% | 286% | 76.5% | 75.2% | 114% | 83.1% | 128% | 41.4% | 118% | 185% | 103% | 156% | 58.7% | 32.1% | 56.5% | 75.8% | 88.9%
CS(=O)(=O)c1ccc(C(=O)Nc2ccc(Cl)c(-c3ccccn3)c2)c(Cl)c1 [vismodegib] + CO[C@H]1C[C@@H]2CC[C@@H](C)[C@@](O)(O2)C(=O)C(=O)N2CCCC[C@H]2C(=O)O[C@H]([C@H](C)C[C@@H]2CC[C@@H](OCCO)[C@H](OC)C2)CC(=O)[C@H](C)/C=C(\C)[C@@H](O)[C@@H](OC)C(=O)[C@H](C)C[C@H](C)/C=C/C=C/C=C/1C [everolimus] (first compound 1 µM, partner dose 0.02 µM) | 386% | 118% | 181% | 798% | 90.9% | 119% | 102% | 94.4% | 219% | 388% | 135% | 134% | 245% | 259% | 155% | 38.3% | 152% | 109% | 139%
Cn1sc(=O)n(Cc2ccccc2)c1=O + Nc1ncn([C@H]2C[C@H](O)[C@@H](CO)O2)c(=O)n1 [decitabine] (first compound 0.4 µM, partner dose 0.1 µM) | 152% | 66.9% | 285% | 194% | 70.1% | 147% | 95% | 155% | 85.2% | 137% | 112% | 68.4% | 154% | 196% | 116% | 70.6% | 128% | 148% | 105%
Cn1cnc2c(F)c(Nc3ccc(Br)cc3Cl)c(C(=O)NOCCO)cc21 [selumetinib] + CS(=O)(=O)CCNCc1ccc(-c2ccc3ncnc(Nc4ccc(OCc5cccc(F)c5)c(Cl)c4)c3c2)o1 [lapatinib] (first compound 0.015 µM, partner dose 0.8 µM) | 1130% | 97% | 96.4% | 438% | 87.1% | 155% | 95.1% | 53.2% | 112% | 93% | 189% | 103% | 78.5% | 215% | 126% | 66.7% | 229% | 121% | 128%
NC1(c2ccc(-c3nc4ccn5c(=O)[nH]nc5c4cc3-c3ccccc3)cc2)CCC1 + CS(=O)(=O)CCNCc1ccc(-c2ccc3ncnc(Nc4ccc(OCc5cccc(F)c5)c(Cl)c4)c3c2)o1 [lapatinib] (first compound 0.4 µM, partner dose 0.8 µM) | 149% | 50.6% | 116% | 94.3% | 81.6% | 97.6% | 93.3% | 40.9% | 152% | 66.7% | 193% | 122% | 107% | 91.6% | 125% | 124% | 116% | 186% | 76.7%
NC(=O)c1ccc(N(C(N)=O)c2c(F)cccc2F)nc1-c1ccc(F)cc1F + O=C(O)[C@@H]1[O][Sb](=[O])([O][Sb]2(=[O])[O][C@H]([C@H](O)CO)[C@H](O)[C@H](C(=O)O)[O]2)[O][C@H]([C@H](O)CO)[C@@H]1O [stibogluconate] (first compound 0.4 µM, partner dose 2 µM) | 105% | 83.8% | 39.9% | 55.7% | 68.6% | 51.9% | 92.5% | 87.3% | 109% | 115% | 131% | 102% | 55.5% | 136% | 132% | 268% | 73.6% | 137% | 41.2%

Quoted from the listing.
Value of Cn1sc(=O)n(Cc2ccccc2)c1=O + C[C@]1(O)C[C@@H](c2nc(-c3ccc4ccc(-c5ccccc5)nc4c3)c3c(N)nccn32)C1 [OSI906] (first compound 0.4 µM, partner dose 0.4 µM) under cleaved PARP positive nuclei fraction [1]: 332%
Value of CS(=O)(=O)c1ccc(C(=O)Nc2ccc(Cl)c(-c3ccccn3)c2)c(Cl)c1 [vismodegib] + CO[C@H]1C[C@@H]2CC[C@@H](C)[C@@](O)(O2)C(=O)C(=O)N2CCCC[C@H]2C(=O)O[C@H]([C@H](C)C[C@@H]2CC[C@@H](OCCO)[C@H](OC)C2)CC(=O)[C@H](C)/C=C(\C)[C@@H](O)[C@@H](OC)C(=O)[C@H](C)C[C@H](C)/C=C/C=C/C=C/1C [everolimus] (first compound 1 µM, partner dose 0.02 µM) under cleaved PARP positive nuclei fraction [3]: 181%

Source: the supplement of paper PMC4604168 (melanoma cell lines)
